Test results taken from patent US9554576B2, “Tetrazolinone compounds and their use as pesticides” (SUMITOMO CHEMICAL COMPANY, LIMITED, priority 2012, dated 2017).
Some entries share one result that the patent states for a list of compounds.

Columns and labels:
[1] = tested on: wheat leaf blotch fungi (Septoria tritici); assay: Test Example 11: wheat leaf blotch foliar spray test; assay type: in vivo; conditions: wheat (cv; Apogee), 200 ppm foliar spray, inoculated after 4 days
[2] = tested on: barley leaf blotch fungi (Rhynchosporium secalis); assay: Test Example 14: barley leaf blotch foliar spray test; assay type: in vivo; conditions: barley (cv; Mikamo Golden), 200 ppm foliar spray, inoculated after 2 days
[3] = tested on: barley net blotch fungi (Pyrenophora teres); assay: Test Example 3: barley net blotch control, foliar spray on barley (cv Mikamo Golden), 500 ppm; assay type: in vivo; conditions: 500 ppm foliar spray, inoculated 2 days after spraying, observed after 3 + 7 days
[4] = tested on: wheat leaf blotch fungi (Septoria tritici); assay: Test Example 5: wheat leaf blotch control, foliar spray on wheat (cv Apogee), 500 ppm; assay type: in vivo; conditions: 500 ppm foliar spray, inoculated 4 days after spraying, observed after 3 days + 14 to 18 days
[5] = tested on: kidney bean sclerotinia rot fungi (Sclerotinia sclerotiorum); assay: Test Example 10: kidney bean sclerotinia rot foliar spray test; conditions: Kidney bean (cv; Nagauzurasaitou), 200 ppm foliar spray, observed after four days
[6] = tested on: cucumber anthracnose fungi (Colletotrichum lagenarium); assay: Test Example 17: cucumber anthracnose foliar spray test; assay type: in vivo; conditions: cucumber (cv; Sagamihanjiro), 200 ppm foliar spray, inoculated after 1 day
[7] = tested on: soybean rust fungi (phakopsora pachyrhizi); assay: Test Example 13: soybean rust foliar spray test; assay type: in vivo; conditions: soybean (cv: Kurosengoku), 200 ppm foliar spray, inoculated after 2 days
[8] = tested on: barley net blotch fungi (Pyrenophora teres); assay: Barley net blotch foliar spray preventive test; assay type: in vivo; conditions: barley (cv; Mikamo Golden), 200 ppm foliar spray, inoculated after 2 days
[9] = tested on: powdery mildew fungi (Sphaerotheca fuliginea); assay: Test Example 12: cucumber powdery mildew foliar spray test; assay type: in vivo; conditions: cucumber (cv; Sagamihanjiro), 200 ppm foliar spray, observed after 8 days
[10] = tested on: kidney bean sclerotinia rot fungi (Sclerotinia sclerotiorum); assay: Test Example 4: kidney bean sclerotinia rot control, foliar spray on kidney bean (cv Nagauzurasaitou), 500 ppm; conditions: 500 ppm foliar spray, PDA medium with hyphae placed on leaves, observed after four days
[11] = tested on: powdery mildew fungi (Sphaerotheca fuliginea); assay: Test Example 6: cucumber powdery mildew control, foliar spray on cucumber (cv Sagamihanjiro), 500 ppm; assay type: in vivo; conditions: 500 ppm foliar spray, spores sprinkling-inoculated, observed after 8 days
[12] = tested on: cucumber target spot fungi (Corynespora cassiicola); assay: Test Example 16: cucumber target spot foliar spray test; assay type: in vivo; conditions: cucumber (cv; Sagamihanjiro), 200 ppm foliar spray, inoculated after 1 day

CCn1ccc(-c2ccc(OCc3c(C4CC4)cccc3-n3nnn(C)c3=O)c(C)c2)n1 [Present compound 13, 1-{3-cyclopropyl-2-[2-methyl-4-(1-ethyl-1H-pyrazol-3-yl)-phenoxymethyl]-phenyl}-4-methyl-1,4-dihydrotetrazole-5-one]
≤ 30%: lesion area compared to the lesion area in untreated plants [1] | lesion area compared to the lesion area in untreated plants [2] | lesion area in treated plants compared to the lesion area in untreated plants [3] | lesion area in treated plants compared to the lesion area in untreated plants [4] | lesion area compared to the lesion area in untreated plants [5] | lesion area compared to the lesion area in untreated plants [6] | lesion area compared to the lesion area in untreated plants [7] | lesion area compared to the lesion area in untreated plants [8] | lesion area compared to the lesion area in untreated plants [9] | lesion area in treated plants compared to the lesion area in untreated plants [10] | lesion area in treated plants compared to the lesion area in untreated plants [11]

Cc1cc(-c2ccn(C(C)C)n2)ccc1OCc1c(C2CC2)cccc1-n1nnn(C)c1=O [Present compound 14, 1-{3-cyclopropyl-2-[2-methyl-4-(1-isopropyl-1H-pyrazol-3-yl)-phenoxymethyl]-phenyl}-4-methyl-1,4-dihydrotetrazole-5-one]
≤ 30%: lesion area compared to the lesion area in untreated plants [1] | lesion area compared to the lesion area in untreated plants [2] | lesion area in treated plants compared to the lesion area in untreated plants [3] | lesion area in treated plants compared to the lesion area in untreated plants [4] | lesion area compared to the lesion area in untreated plants [5] | lesion area compared to the lesion area in untreated plants [6] | lesion area compared to the lesion area in untreated plants [7] | lesion area compared to the lesion area in untreated plants [8] | lesion area compared to the lesion area in untreated plants [9] | lesion area in treated plants compared to the lesion area in untreated plants [10] | lesion area in treated plants compared to the lesion area in untreated plants [11]

Cc1cc(-c2ccn(C)n2)ccc1OCc1c(OC(F)F)cccc1-n1nnn(C)c1=O [Present compound 18, 1-{3-difluoromethoxy-2-[2-methyl-4-(1-methyl-1H-pyrazol-3-yl)-phenoxymethyl]-phenyl}-4-methyl-1,4-dihydrotetrazole-5-one]
≤ 30%: lesion area compared to the lesion area in untreated plants [1] | lesion area compared to the lesion area in untreated plants [2] | lesion area in treated plants compared to the lesion area in untreated plants [3] | lesion area in treated plants compared to the lesion area in untreated plants [4] | lesion area compared to the lesion area in untreated plants [5] | lesion area compared to the lesion area in untreated plants [6] | lesion area compared to the lesion area in untreated plants [7] | lesion area compared to the lesion area in untreated plants [8] | lesion area compared to the lesion area in untreated plants [9] | lesion area in treated plants compared to the lesion area in untreated plants [10] | lesion area in treated plants compared to the lesion area in untreated plants [11]

Cc1cn(C)nc1-c1ccc(OCc2c(C3CC3)cccc2-n2nnn(C)c2=O)c(Cl)c1 [Present compound 22, 1-{3-cyclopropyl-2-[2-chloro-4-(1,4-dimethyl-1H-pyrazol-3-yl)-phenoxymethyl]-phenyl}-4-methyl-1,4-dihydrotetrazole-5-one]
≤ 30%: lesion area compared to the lesion area in untreated plants [2] | lesion area in treated plants compared to the lesion area in untreated plants [3] | lesion area in treated plants compared to the lesion area in untreated plants [4] | lesion area compared to the lesion area in untreated plants [5] | lesion area compared to the lesion area in untreated plants [6] | lesion area compared to the lesion area in untreated plants [7] | lesion area in treated plants compared to the lesion area in untreated plants [11]

Cc1cc(-c2nn(C)cc2C)ccc1OCc1c(C2CC2)cccc1-n1nnn(C)c1=O [Present compound 24, 1-{3-cyclopropyl-2-[4-(1,4-dimethyl-1H-pyrazol-3-yl)-2-methyl-phenoxymethyl]-phenyl}-4-methyl-1,4-dihydrotetrazole-5-one]
≤ 30%: lesion area compared to the lesion area in untreated plants [2] | lesion area in treated plants compared to the lesion area in untreated plants [3] | lesion area in treated plants compared to the lesion area in untreated plants [4] | lesion area compared to the lesion area in untreated plants [6] | lesion area compared to the lesion area in untreated plants [7] | lesion area in treated plants compared to the lesion area in untreated plants [10] | lesion area in treated plants compared to the lesion area in untreated plants [11]

Cc1cc(-c2nn(C)c(C)c2C)ccc1OCc1c(C2CC2)cccc1-n1nnn(C)c1=O [Present compound 25, 1-{3-cyclopropyl-2-[2-methyl-4-(1,4,5-trimethyl-1H-pyrazol-3-yl)-2-methyl-phenoxymethyl]-phenyl}-4-methyl-1,4-dihydrotetrazole-5-one]
≤ 30%: lesion area compared to the lesion area in untreated plants [1] | lesion area compared to the lesion area in untreated plants [2] | lesion area in treated plants compared to the lesion area in untreated plants [3] | lesion area in treated plants compared to the lesion area in untreated plants [4] | lesion area compared to the lesion area in untreated plants [5] | lesion area compared to the lesion area in untreated plants [6] | lesion area compared to the lesion area in untreated plants [7] | lesion area compared to the lesion area in untreated plants [8] | lesion area compared to the lesion area in untreated plants [9]

CCCCc1c(C)nn(-c2ccc(OCc3c(C4CC4)cccc3-n3nnn(C)c3=O)c(C)c2)c1C [Present compound 35, 1-{3-cyclopropyl-2-[2-methyl-4-(4-butyl-3,5-dimethyl-pyrazol-1-yl)-phenoxymethyl]-phenyl}-4-methyl-1,4-dihydrotetrazole-5-one]
≤ 30%: lesion area compared to the lesion area in untreated plants [1] | lesion area compared to the lesion area in untreated plants [2] | lesion area compared to the lesion area in untreated plants [5] | lesion area compared to the lesion area in untreated plants [6] | lesion area compared to the lesion area in untreated plants [8] | lesion area compared to the lesion area in untreated plants [9] | lesion area compared to the lesion area in untreated plants [12]

CCOc1c(C)c(-c2ccc(OCc3c(C4CC4)cccc3-n3nnn(C)c3=O)c(C)c2)nn1C [Present compound 37, 1-{3-cyclopropyl-2-[2-methyl-4-(5-ethoxy-1,4-dimethyl-1H-pyrazol-3-yl)-phenoxymethyl]-phenyl}-4-methyl-1,4-dihydrotetrazole-5-one]
≤ 30%: lesion area compared to the lesion area in untreated plants [1] | lesion area compared to the lesion area in untreated plants [7] | lesion area compared to the lesion area in untreated plants [8] | lesion area in treated plants compared to the lesion area in untreated plants [10] | lesion area compared to the lesion area in untreated plants [12] | lesion area in treated plants compared to the lesion area in untreated plants [11]

COc1c(C)c(-c2ccc(OCc3c(OC(F)F)cccc3-n3nnn(C)c3=O)c(C)c2)nn1C [Present compound 42, 1-{3-difluoromethoxy-2-[2-methyl-4-(5-methoxy-1,4-dimethyl-1H-pyrazol-3-yl)-phenoxymethyl]-phenyl}-4-methyl-1,4-dihydrotetrazole-5-one]
≤ 30%: lesion area compared to the lesion area in untreated plants [1] | lesion area compared to the lesion area in untreated plants [2] | lesion area compared to the lesion area in untreated plants [6] | lesion area compared to the lesion area in untreated plants [8] | lesion area compared to the lesion area in untreated plants [9] | lesion area compared to the lesion area in untreated plants [12]
